Data published in paper PMC3396610.
These are yes or no findings as the source states them, for the method shown.

Protein sequences, listed by entry. Tags and fused reporters are not part of them.
UniProt P18056: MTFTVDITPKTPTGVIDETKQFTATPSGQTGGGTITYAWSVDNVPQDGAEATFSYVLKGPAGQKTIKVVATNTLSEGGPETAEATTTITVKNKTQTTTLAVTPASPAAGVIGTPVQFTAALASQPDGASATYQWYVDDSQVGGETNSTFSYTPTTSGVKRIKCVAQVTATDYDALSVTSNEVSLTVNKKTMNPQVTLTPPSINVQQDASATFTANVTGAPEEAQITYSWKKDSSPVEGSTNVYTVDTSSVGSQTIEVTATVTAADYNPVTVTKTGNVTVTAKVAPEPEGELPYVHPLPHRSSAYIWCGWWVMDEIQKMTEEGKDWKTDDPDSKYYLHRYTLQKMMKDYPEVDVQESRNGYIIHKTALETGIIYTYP

Molecular target: Highly Immunogenic Outer Capsid Protein (gphoc) of bacteriophage T4 (bacteriophage T4) (UniProt P18056)
Test: dynamic light scattering; purified, non-denatured protein preparations; hydrodynamic diameter by Zetasizer Nano, 5 measurements of 15 runs, at least two independent preparations; both purified

Substance: Highly Immunogenic Outer Capsid Protein (gphoc) of bacteriophage T4 (from UniProt P18056 1-376)
- binding: no binding
